Measured values published in PMC9492413.
These are yes or no findings as the source states them, for the method shown. Binding seen in cells or lysates may run through a third protein. Here binding means that the protein was enriched with, or labelled near, the bait; the list need not be complete.

Amino acid sequences for entries named in this document (tags omitted).
UniProt Q969H0: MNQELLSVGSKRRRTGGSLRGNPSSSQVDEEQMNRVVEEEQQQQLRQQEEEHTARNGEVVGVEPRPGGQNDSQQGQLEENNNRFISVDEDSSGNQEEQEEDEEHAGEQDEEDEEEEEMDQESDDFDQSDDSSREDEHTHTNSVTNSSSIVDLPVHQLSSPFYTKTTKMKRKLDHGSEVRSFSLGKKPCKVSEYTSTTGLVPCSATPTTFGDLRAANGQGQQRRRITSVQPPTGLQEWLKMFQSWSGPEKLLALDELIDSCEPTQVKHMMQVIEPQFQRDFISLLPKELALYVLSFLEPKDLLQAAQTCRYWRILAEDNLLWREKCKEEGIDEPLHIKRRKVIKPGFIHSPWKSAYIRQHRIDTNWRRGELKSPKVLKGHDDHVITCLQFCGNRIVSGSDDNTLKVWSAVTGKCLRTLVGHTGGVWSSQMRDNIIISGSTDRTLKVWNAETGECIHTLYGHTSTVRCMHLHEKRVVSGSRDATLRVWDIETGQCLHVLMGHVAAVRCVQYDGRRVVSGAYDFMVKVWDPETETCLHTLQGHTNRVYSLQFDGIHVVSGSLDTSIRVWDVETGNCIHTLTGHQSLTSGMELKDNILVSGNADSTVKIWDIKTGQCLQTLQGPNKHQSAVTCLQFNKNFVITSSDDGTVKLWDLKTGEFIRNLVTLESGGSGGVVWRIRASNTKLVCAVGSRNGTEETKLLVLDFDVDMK
UniProt O96019: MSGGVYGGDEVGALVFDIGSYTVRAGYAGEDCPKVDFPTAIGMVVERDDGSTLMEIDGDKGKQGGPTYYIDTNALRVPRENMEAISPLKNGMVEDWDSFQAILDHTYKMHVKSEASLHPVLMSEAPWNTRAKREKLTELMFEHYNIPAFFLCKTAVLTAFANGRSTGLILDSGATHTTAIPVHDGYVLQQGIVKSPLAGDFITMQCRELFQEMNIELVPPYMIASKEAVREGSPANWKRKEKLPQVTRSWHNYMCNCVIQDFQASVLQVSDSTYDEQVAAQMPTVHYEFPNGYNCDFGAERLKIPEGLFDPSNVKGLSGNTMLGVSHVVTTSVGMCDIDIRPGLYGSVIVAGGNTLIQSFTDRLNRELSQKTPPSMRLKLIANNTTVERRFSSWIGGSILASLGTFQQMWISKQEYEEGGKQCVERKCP

Target: Flag-tagged FBXW7 (F-box and WD repeat domain-containing 7) (UniProt Q969H0)
Assay: affinity purification with mass spectrometry; cell extracts from MHCC-97 cells with Flag-FBXW7 expression immunopurified on an anti-Flag affinity column, eluted with Flag peptides; eluates analysed by mass spectrometry

binding: binds
Substance: Actin-like 6A (ACTL6A) (from UniProt O96019 1-429)
